US20050010028A1 (KEIO UNIVERSITY, published 2005)
Results are given in words; binding and its absence hold for the method and conditions named. Some results given as binding are weak or reduced against the parent protein; the word gives no strength.

Protein sequences, listed by entry. Tags and fused reporters are not part of them. Lines headed by an entry give the natural chain unless they say otherwise; changes in a name come on top. Chains listed by the source or under a name are the forms on record and can include a tag or linker. Residues count along the entry.
UniProt P05627, residues 216-318: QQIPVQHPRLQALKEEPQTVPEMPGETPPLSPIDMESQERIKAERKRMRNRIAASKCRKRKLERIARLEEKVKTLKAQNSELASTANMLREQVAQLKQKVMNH
Fos modified with TAMRA-dC-puromycin (Modifying agent 19) (P01101, form named): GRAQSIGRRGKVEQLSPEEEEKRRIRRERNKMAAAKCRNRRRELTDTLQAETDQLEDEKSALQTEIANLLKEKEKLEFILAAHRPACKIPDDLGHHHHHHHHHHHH

What was measured:
[1] = target: streptavidin-fused Jun protein (Streptomyces avidinii; mouse) (UniProt P05627); assay: protein microarray: STA-Jun on a biotin plate, labelled Fos in solution, fluorescence scan
[2] = target: streptavidin-fused Jun protein (Streptomyces avidinii; mouse) (UniProt P05627); assay: protein microarray: STA-Jun on a biotin-coated slide, labelled Fos in solution, fluorescence scan

- binding [1]: binds
- binding [2]: binds
Substance: Fos modified with TAMRA-dC-puromycin (Modifying agent 19) (from UniProt P01101 118-211)
